Publication PMC7498670
No constants are given. Whether binding was seen depends on the method and setting. A result given as binding can be weak or reduced; the word gives no strength. Sequences can lack the tags named with a protein. For some assays here: In cells and extracts the contact can be indirect.

Key:
[1] = target: T1, AtHUB2 (yeast two-hybrid fusion) (Arabidopsis) (UniProt Q9C895); assay: two-hybrid; genes in pGBKT7 and pGADT7, co-transformed into AH109 yeast; growth and quantitative beta-galactosidase activity (Clontech Yeast Protocols Handbook)
T1 sequence: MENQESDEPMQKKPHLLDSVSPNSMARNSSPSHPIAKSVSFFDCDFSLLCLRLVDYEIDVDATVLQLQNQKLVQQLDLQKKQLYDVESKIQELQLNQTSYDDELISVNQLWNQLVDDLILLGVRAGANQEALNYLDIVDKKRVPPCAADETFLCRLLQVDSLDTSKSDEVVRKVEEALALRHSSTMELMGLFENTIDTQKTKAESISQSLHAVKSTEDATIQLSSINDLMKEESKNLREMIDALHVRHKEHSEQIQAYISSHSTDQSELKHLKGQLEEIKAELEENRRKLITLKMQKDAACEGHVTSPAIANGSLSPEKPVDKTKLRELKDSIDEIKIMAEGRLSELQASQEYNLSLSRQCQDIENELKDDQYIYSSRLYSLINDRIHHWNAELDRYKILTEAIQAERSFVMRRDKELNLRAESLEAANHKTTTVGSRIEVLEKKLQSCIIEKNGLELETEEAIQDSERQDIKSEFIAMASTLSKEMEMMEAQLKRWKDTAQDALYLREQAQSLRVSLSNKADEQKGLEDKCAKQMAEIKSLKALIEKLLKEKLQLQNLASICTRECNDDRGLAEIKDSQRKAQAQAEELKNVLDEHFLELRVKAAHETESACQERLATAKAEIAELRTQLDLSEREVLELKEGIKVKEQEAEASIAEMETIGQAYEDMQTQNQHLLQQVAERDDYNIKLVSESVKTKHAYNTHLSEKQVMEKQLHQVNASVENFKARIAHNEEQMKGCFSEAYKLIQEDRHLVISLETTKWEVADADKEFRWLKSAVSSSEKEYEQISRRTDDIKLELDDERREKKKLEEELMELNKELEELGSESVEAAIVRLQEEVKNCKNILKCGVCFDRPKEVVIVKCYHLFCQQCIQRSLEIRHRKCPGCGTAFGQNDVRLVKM

[2] = target: T2, AtHUB2 (BiFC fusion with the C-terminal part of YFP) (Arabidopsis) (UniProt Q9C895); assay: split reporter; BiFC with split YFP (pVYNE(R) and pVYCE(R)), vectors co-transformed in pairs into Arabidopsis protoplasts; DAPI for the nucleus; confocal microscopy
T2 sequence: T1 sequence

| Substance | binding [1] | binding [2] |
| --- | --- | --- |
| GmUBC9 (yeast two-hybrid fusion) (soybean (Glycine max)) (enzyme) | binds | – |
| GmUBC9-eYNP (BiFC fusion of GmUBC9 with the N-terminal part of YFP) (soybean (Glycine max)) (enzyme) | – | binds |
